The chains behind the UniProt entries cited, without tags or fusion partners. Where a name states a change or a piece, a line headed by the entry shows the natural chain unless it says otherwise.
UniProt Q13153: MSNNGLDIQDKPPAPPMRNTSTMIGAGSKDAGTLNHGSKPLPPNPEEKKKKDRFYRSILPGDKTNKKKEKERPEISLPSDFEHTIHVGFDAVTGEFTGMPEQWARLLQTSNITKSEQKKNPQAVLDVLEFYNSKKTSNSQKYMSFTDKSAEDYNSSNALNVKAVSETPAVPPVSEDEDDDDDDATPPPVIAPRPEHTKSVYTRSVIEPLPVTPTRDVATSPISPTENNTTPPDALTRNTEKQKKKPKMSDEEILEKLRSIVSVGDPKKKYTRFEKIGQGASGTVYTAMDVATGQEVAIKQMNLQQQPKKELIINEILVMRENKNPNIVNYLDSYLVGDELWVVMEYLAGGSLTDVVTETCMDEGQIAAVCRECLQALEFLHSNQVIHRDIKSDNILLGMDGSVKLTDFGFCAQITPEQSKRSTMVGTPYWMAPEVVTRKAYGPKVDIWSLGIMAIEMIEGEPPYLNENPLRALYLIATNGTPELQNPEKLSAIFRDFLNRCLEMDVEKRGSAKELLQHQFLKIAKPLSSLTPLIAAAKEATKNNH
UniProt P60953: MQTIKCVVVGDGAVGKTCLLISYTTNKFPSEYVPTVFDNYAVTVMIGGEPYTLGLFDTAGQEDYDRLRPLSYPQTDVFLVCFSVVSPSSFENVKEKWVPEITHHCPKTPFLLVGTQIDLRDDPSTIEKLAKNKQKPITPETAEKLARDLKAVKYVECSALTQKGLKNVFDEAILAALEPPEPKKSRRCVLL

In PMC7226122:

Target: GST-PAK1-PBD (GST-conjugated Rac/Cdc42 (p21) binding domain from PAK1) (UniProt Q13153)
Assay: pull-down; 20 ug GST-PAK1-PBD with glutathione resin incubated with total protein of cell lysate at 4 C for 1 h; resin washed with lysis buffer, eluted with 2x SDS sample buffer with 200 mM dithiothreitol; immunoblotting; U251 IDH1 WT or IDH1-mutated cells; only the target purified

binding: binds
Substance: Cell division control protein 42 homolog (Cdc42), active form (from UniProt P60953 1-191)

These are yes or no findings as the source states them, for the method shown. Binding seen in cells or lysates may run through a third protein. Binding can be weak; no strength is given.
